# Experimental data reported in PubChem BioAssay AID1347423 (Functional Genomics Laboratory (NCATS/FGL), 2020).
# Screen size: about 52,000 sequences; about 210 (0.4%) were called active.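 How the source made its calls: active means gene whose silencing raises cell survival under the drug, median off-target-corrected z-score across its silencing RNAs 2 or more; inactive means the rest.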 The list shows a part of the results.
# Test: Resistance to Poly (ADP-Ribose) Polymerase inhibitor: Gene Identification via Genome-wide siRNA Screen
# Settings: mouse BRCA2 R2336H ES cells, olaparib, CellTiter-Glo viability; stronger effect = higher value
# In short: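 Genome-wide siRNA screen (3 siRNAs/gene, 20 nM) in mouse ES cells carrying hypomorphic BRCA2 R2336H; olaparib 500 nM added 48 h post-transfection, CellTiter-Glo viability 72 h later. Normalized to plate-median negative control; MAD z-scores, gene median, seed-adjusted.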
row,Sequence,z-score
1,GCUUAACAACAGCAAGAACTT against V1rh14,inactive: -0.334
2,GGGCCUGUUAAGCUCAAAGTT against 2610014H22Rik,inactive: -0.534
3,GGAAAAGAUGAAGUGGUUUTT against Hist1h2be,inactive: 0.66
4,CGGCGUGCACUCUGGAUAATT against 5730419I09Rik,inactive: -1.18
5,GCUCCUGUAGACAGGUUAGTT against Serac1,inactive: -1.62
6,GGCUGUCAUCUACGUUCUUTT against BC022224,inactive: 0.392
7,GCUGCUUUUUCAUUGUCACTT against Hcrtr1,inactive: 0.115
8,GCUAUUGGUGUAUUUCAAUTT against Srd5a2l2,inactive: -1.08
9,GGAGCUGAGCAACAUCACATT against Il13,inactive: -0.92
10,GCCCAGCAAAACGAAAUACTT against Foxc2,inactive: -0.813
11,CGGAGCUGUCUGAUUGUCGTT against R75581,inactive: -0.234
12,CCCUAUUUGACAAAUUCCUTT against Cdo1,inactive: -0.0474
13,GCUUGCUAAGAUUGAGUAUTT against Cerkl,inactive: -1.97
14,GGUAAGUUGUGUUUACUUATT against Fts,inactive: 0.731
15,GGCCUUUCAAGGAACCAAGTT against Psme3,inactive: -1.33
16,GCAAGACUUGUCAUGACACTT against Lnp,inactive: -0.627
17,GAAAAUGGUCACUACUGAGTT against S100a8,inactive: 1.02
18,GAAGACUCGGAAGAAAAUGTT against 1110020C13Rik,inactive: -2.22
19,GCCAUAAACCGAGGAAAAATT against BC048651,inactive: -0.515
20,GGAGCCUCCAUAGAAACCATT against Klk9,inactive: -2.59
21,GGAGCUCUUGGAUAUAAAATT against Eif4enif1,inactive: 0.571
22,GGGCAACUGUACGUACCAUTT against C1qr1,inactive: -0.668
23,CCGAAUGUUUUCCCACCUGTT against Lgi2,inactive: -0.922
24,GCCGAGCAGUUACUUGAGATT against 3000004C01Rik,inactive: 0.396
25,GGAUUUGUCAAACAACACATT against Ostm1,inactive: -0.271
26,GGAACUGAUAACCAGCCAGTT against 1700029B21Rik,inactive: -0.44

row,Sequence,z-score
1,CGAUAAGGAUUACAGUGAGTT against Epb4.1l1,inactive: -1.29
2,GCAAGAGACCAUGAGAAAUTT against 4932411G06Rik,inactive: -0.915
3,GGAAAAAGCUGAGGUACCATT against B230205M03,inactive: -1.34
4,CCAAAUCUGGUGUGAUUCATT against C230030N03Rik,inactive: 0.0576
5,GGAGAAGGAUCUGAACGAGTT against Nog,inactive: -1.3
6,GGGUCCUACAGAAGGAACUTT against Mea1,inactive: 1.1
7,GGACUAAUCCCAUUUUCUUTT against Zfp422,inactive: 0.0465
8,GGUCUACCAUGACACACGUTT against Prrg2,inactive: -1.22
9,GGAACAAAGACAUGUAUCATT against BC021513,inactive: 0.453
10,GGUUUGGUUUUCAUUGUUATT against Nhlrc2,inactive: 0.62
11,CCCAGGGUACCUCACAUCUTT against Nrp1,inactive: -0.507
12,GGCAAUUUUUCAAGGCUUATT against D130007C19Rik,inactive: -1.34
13,CCGAUGACAAUCGGCCCUUTT against Gja8,inactive: -0.706
14,GGUCAUAGCUGGAUUCCUUTT against Olfr1453,inactive: 0.973
15,GGGUUGUUUGUCUUGUUCGTT against 2610028F08Rik,inactive: -1.22
16,GGAGGACUAGUUGUGACUUTT against Aldh1a1,inactive: -0.299
17,GAUGAAGAAGUAGAAAUGGTT against 4933401N24Rik,inactive: 0.432
18,GCUCAGAGAACCUUAUAAGTT against Cyp4f15,inactive: -0.501
19,GGAUUCUCACAAGUAAUUCTT against Ifi203,inactive: -0.18
20,GGCCCUUUUAAAUAACUACTT against 1110004F10Rik,inactive: 1.23
21,GGACCAGCUGAAGAUGGGATT against MGC47262,inactive: 0.913
22,GGAGUUGCAUCACUUGCUCTT against BC016579,inactive: -0.0441
23,GGAAAUCAUCUAUUCGGACTT against Klrc1,inactive: 0.835
24,GCAUCGUCUGUGAAAUAUGTT against Map3k7,inactive: 0.924
25,GGAAAUGAAGCCAUGUUAATT against Arhgef6,inactive: 1.49
26,GACUGAACAGAUCUACUCUTT against Klra7,inactive: -0.466

row,Sequence,z-score
1,CGCAUCACCCAGUACAUCUTT against 6720425G15Rik,inactive: 4.04
2,GGAGAAAUACAACUGAAAATT against Pcdhb7,inactive: -0.644
3,GCUACAAACCGUUUAAUAATT against D2Ertd750e,inactive: -2.04
4,CGGGUUUCAUUAUUAUUCCTT against Foxa1,inactive: 0.42
5,GGUCAUUCACGUCUGCGUUTT against Kcnj8,inactive: -0.274
6,GGUUCUGAGGACAUGUGCATT against Asb18,inactive: -1.22
7,GGAACAGCAUUGGAUGAAGTT against BC023882,inactive: 0.228
8,GGAUACAGUCAGACUCUUGTT against Blmh,inactive: -1.7
9,GAUUUUCCUCUACUGUCCUTT against U90926,inactive: 0.165
10,GGAAAUAUGUUAUUUCCCATT against Cach,inactive: 1.51
11,GGGACUCUUCUACGAGUUUTT against Lims2,inactive: 0.759
12,GGUGAAGUACAGAAUAUGCTT against Sycp3,inactive: -0.89
13,GGCCGAACCUGUCAAAGAATT against Hif3a,inactive: -0.0527
14,GAGACAGAUAGGCAGAAAATT against Olfr478,inactive: -1.59
15,GGACUACCUGGUACAGUCATT against Usmg1,inactive: -1.21
16,AUGGAUAGGGAUUAAGAGCTT against Scn4b,inactive: 0.161
17,GGUGCAGAAUCUCUCAUUGTT against Mrpl30,inactive: 1.32
18,GGUUGGACGUGGUGAAGAATT against Chtf18,inactive: -1.52
19,GGAAGUCAGACAGAUUUAATT against Prss33,active: 3.17
20,GCCACUGCUAUAUUCGCAUTT against Slc35d3,inactive: 0.577
21,GGUAGUCAUUAUUAGGUGUTT against Wdt2,inactive: -0.412
22,CCGCGUGUAUAAGUUGGUGTT against Mrpl9,inactive: -0.171
23,GCUUAUCAAAACAUCGUGATT against Zfp536,inactive: 1.86
24,GGAGAUGAUGAUUUACAAATT against Spred1,inactive: 0.521
25,GGAGGUCUACGACCUGAAUTT against 1110032A13Rik,inactive: -0.95
26,CCGGAGAGAAGGUCUAAUGTT against Galnt2,inactive: -0.646

row,Sequence,z-score
1,GGAGAUUUCUGAAACUAGATT against Tiaf2,inactive: -0.635
2,GGUAACUGUGGAGAACUUUTT against Pigk,inactive: 0.253
3,GGCUCUGGAAAACUCAAAUTT against A230048G03Rik,inactive: 1.27
4,GGUUUCCACCAAACAAAACTT against Bmp3,inactive: 1.63
5,GCAAGUGGCUGAGUACUAATT against R74862,inactive: -2.43
6,UCGAGGAGUAGUAGCUUAATT against Acsl5,inactive: -0.761
7,GGAGGAGCUAUACAAAGCCTT against Rab3il1,inactive: 1.97
8,GGUAUCUGACAUCAUUUCUTT against Csnd,inactive: -1.04
9,GGACACACAUCAUUGCCCATT against Olfr649,inactive: -0.135
10,GGACAUUAAAAGUCUCUUATT against Kbtbd3,inactive: -1.4
11,GGAAAAGAAAAUCGAGACCTT against 4932431F02Rik,inactive: 0.371
12,GCCCUAGUGUCUGAAAAAATT against Sfrp5,inactive: -0.318
13,GGUAAAGAUCGACCUUUUGTT against Stx8,inactive: -0.458
14,CCAACACUACCAGAGAACGTT against Pfkfb1,inactive: 0.295
15,CGGUAGCCAUAUUAAUAUCTT against Spink2,inactive: 0.225
16,GGAGGUUAACAGCUGCCAATT against Rnaset2,inactive: 0.113
17,GGAGGAGAGGUACAAACGGTT against Cxxc1,inactive: -1.2
18,GGAGGUCUGUGCUUACUUGTT against Fnbp4,inactive: 0.369
19,GCUUCCUAACCAGGUUUGATT against 4430402I18Rik,inactive: -0.515
20,GGGUCACGGGAACUCAAAATT against Mlf1,inactive: -0.379
21,GCCAAAGCAAGAUCCCACUTT against Mrcl,inactive: 1.3
22,CGAUGGCCUGAAUCACUUGTT against Hbb-b1,inactive: 0.624
23,GCUUUAUCACCGAUGUCGATT against Slc29a4,inactive: -0.271
24,GGCUAUCAUGAACUUGGAUTT against Gpd2,inactive: 1.96
25,GGCCUCAGUUGGACUUGAATT against Scn10a,inactive: 0.383
26,CCAAAUAUCACACACCCGATT against 4933439F11Rik,inactive: 0.449
